# Data reported in paper doi:10.1101/2021.03.25.436948.
# Chains of the proteins cited; added tags and fusions are not shown.
# UniProt Q3T906: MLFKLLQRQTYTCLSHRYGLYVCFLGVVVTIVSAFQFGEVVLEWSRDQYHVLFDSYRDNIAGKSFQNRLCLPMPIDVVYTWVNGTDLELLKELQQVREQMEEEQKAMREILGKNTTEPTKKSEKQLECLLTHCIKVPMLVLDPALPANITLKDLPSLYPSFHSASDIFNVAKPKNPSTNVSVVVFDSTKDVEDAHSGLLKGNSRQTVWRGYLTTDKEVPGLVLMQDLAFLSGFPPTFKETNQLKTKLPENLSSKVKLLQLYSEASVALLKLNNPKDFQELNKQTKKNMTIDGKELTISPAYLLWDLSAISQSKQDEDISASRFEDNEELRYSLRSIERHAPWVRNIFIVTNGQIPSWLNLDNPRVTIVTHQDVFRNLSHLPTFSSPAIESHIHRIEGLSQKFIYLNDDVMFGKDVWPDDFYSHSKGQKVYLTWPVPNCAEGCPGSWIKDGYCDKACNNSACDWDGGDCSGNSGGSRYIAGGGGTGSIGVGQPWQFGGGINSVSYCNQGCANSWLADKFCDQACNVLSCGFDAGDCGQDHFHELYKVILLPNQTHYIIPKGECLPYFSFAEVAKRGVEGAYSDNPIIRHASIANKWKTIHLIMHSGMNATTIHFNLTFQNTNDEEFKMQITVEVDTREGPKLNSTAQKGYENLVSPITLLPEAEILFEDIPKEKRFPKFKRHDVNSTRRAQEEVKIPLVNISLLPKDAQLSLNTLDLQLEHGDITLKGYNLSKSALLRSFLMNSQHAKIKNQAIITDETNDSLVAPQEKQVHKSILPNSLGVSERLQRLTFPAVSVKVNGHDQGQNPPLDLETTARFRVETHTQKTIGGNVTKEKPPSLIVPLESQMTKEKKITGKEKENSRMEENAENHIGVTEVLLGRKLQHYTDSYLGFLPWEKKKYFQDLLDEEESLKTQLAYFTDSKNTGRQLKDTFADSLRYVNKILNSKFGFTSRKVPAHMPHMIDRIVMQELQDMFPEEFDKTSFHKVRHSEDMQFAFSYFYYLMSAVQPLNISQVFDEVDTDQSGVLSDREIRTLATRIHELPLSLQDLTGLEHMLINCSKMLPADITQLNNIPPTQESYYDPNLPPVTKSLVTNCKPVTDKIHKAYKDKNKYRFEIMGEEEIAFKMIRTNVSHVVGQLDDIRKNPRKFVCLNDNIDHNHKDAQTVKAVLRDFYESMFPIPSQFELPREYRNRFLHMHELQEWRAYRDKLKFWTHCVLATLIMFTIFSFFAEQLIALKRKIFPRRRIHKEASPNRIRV
# These are yes or no findings as the source states them, for the method shown. In cells and extracts the contact can be indirect. Some entries that bind do so weakly or less than the wild type.
# Target: human GNPTAB, wild type, C-terminally Flag- or V5-tagged (human) (UniProt Q3T906)
# Test: co-IP
substance,measurement,value
"human GNPTAB, wild type, C-terminally Flag- or V5-tagged (from UniProt Q3T906 1-1256) (enzyme)",binding,binds
